Measured values from US20110178107A1, “HCV PROTEASE INHIBITORS” (TaiGen Biotechnology Co., Ltd., priority 2010, published 2011).
Some entries share one result that the patent states for a list of compounds.

Target: T1, NS3/4A protease (Hepatitis C virus genotype 1a, UniProt P27958)
T1 construct: N-terminal His6-tagged-NS4A(21-32)-GSGS-NS3(3-181); made in house; host or cells: E. coli BL21(DE3) pLysS
Assay: Inhibition of NS3/4A protease activity (HPLC microbore assay)
Assay type: biochemical, HCV
Settings: 2 nM NS3/4A protease, 30 minutes at 30° C; call rule not given here.

SMILES	inhibiting NS3/4A activity
C=C[C@@H]1C[C@]1(NC(=O)[C@@H]1C[C@@H](Oc2nc(-c3ccc(C(C)(C)C)cc3)nc3c2oc2cccnc23)CN1C(=O)[C@@H](Nc1nc(C)cs1)C(C)(C)C)C(=O)NS(=O)(=O)C1CC1 [Compound 98]	active
C=C[C@@H]1C[C@]1(NC(=O)[C@@H]1C[C@@H](Oc2nc(-c3ccc(OC(C)C)cc3)nc3c2sc2ccc(F)cc23)CN1C(=O)[C@@H](Nc1cccc(F)c1)C(C)(C)C)C(=O)NS(=O)(=O)C1CC1 [Compound 153]	active
C=C[C@@H]1C[C@]1(NC(=O)[C@@H]1C[C@@H](Oc2nc(-c3ccc(OC(C)C)cc3)nc3c2sc2ccc(F)cc23)CN1C(=O)[C@@H](Nc1ccccc1)C(C)(C)C)C(=O)NS(=O)(=O)C1CC1 [Compound 151]	active
C=C[C@@H]1C[C@]1(NC(=O)[C@@H]1C[C@@H](Oc2nc(-c3ccc(OC(C)C)cc3)nc3c2sc2ccccc23)CN1C(=O)[C@@H](Nc1nc(C(=O)OC)cs1)C(C)(C)C)C(=O)NS(=O)(=O)C1CC1 [Compound 129]	active
CC(C)c1cccc(-c2cc(O[C@@H]3C[C@H]4C(=O)N[C@]5(C(=O)NS(=O)(=O)C6CC6)C[C@H]5/C=C\CCCCC[C@H](NC(=O)OC5CCCC5)C(=O)N4C3)n3nc4ccccc4c3n2)n1 [Compound 274]	active
COc1ccc(-c2cc(O[C@@H]3C[C@H]4C(=O)N[C@]5(C(=O)NS(=O)(=O)C6CC6)C[C@H]5/C=C\CCCCC[C@H](NC(=O)OC5CCCC5)C(=O)N4C3)n3nc4c(C(F)(F)F)cccc4c3n2)cc1 [Compound 259]	active
CC(C)Oc1ccc(-c2nc(O[C@@H]3C[C@H]4C(=O)N[C@]5(C(=O)NS(=O)(=O)C6CC6)C[C@H]5/C=C\CCCCC[C@H](Nc5ccc(C#N)cc5)C(=O)N4C3)c3sc4ccccc4c3n2)cc1 [Compound 220]	active
C=C[C@@H]1C[C@]1(NC(=O)[C@@H]1C[C@@H](Oc2nc(-c3ccc(C(F)(F)F)cc3)nc3c2oc2ccccc23)CN1C(=O)[C@@H](Nc1cccc(F)c1)C(C)(C)C)C(=O)NS(=O)(=O)C1CC1 [Compound 22]	active
C=C[C@@H]1C[C@]1(NC(=O)[C@@H]1C[C@@H](Oc2nc(-c3ccc(C(F)(F)F)cc3)nc3c2oc2ccccc23)CN1C(=O)[C@@H](Nc1cccc(Cl)c1)C(C)(C)C)C(=O)NS(=O)(=O)C1CC1 [Compound 42]	active
CC[C@@H]1C[C@]1(NC(=O)[C@@H]1C[C@@H](Oc2nc(-c3ccc(C(F)(F)F)cc3)nc3c2oc2ccccc23)CN1C(=O)[C@@H](Nc1cccc(F)c1)C1CCCCC1)C(=O)NS(=O)(=O)C1CC1 [Compound 40]	active
C=C[C@@H]1C[C@]1(NC(=O)[C@@H]1C[C@@H](Oc2nc(-c3ccc(C(F)(F)F)cc3)nc3c2sc2ccccc23)CN1C(=O)[C@@H](Nc1nc(C(=O)OCC)cs1)C(C)(C)C)C(=O)NS(=O)(=O)C1CC1 [Compound 110]	active
C=C[C@@H]1C[C@]1(NC(=O)[C@@H]1C[C@@H](Oc2nc(-c3ccc(C(F)(F)F)cc3)nc3c2oc2ccccc23)CN1C(=O)[C@@H](Nc1cc(F)ccc1F)C(C)(C)C)C(=O)NS(=O)(=O)C1CC1 [Compound 31]	active
C=CCCCCC[C@H](Nc1ccc(F)cc1)C(=O)N1C[C@H](Oc2nc(-c3ccc(C(F)(F)F)cc3)nc3c2oc2ccccc23)C[C@H]1C(=O)N[C@]1(C(=O)NS(=O)(=O)C2CC2)C[C@H]1C=C [Compound 73]	active
O=C1N[C@]2(C(=O)NS(=O)(=O)C3CC3)C[C@H]2/C=C\CCCCC[C@H](Nc2cccc(Cl)c2)C(=O)N2C[C@H](Oc3nc(-c4ccc(C(F)(F)F)cc4)nc4c3oc3ccccc34)C[C@@H]12 [Compound 196]	active
C=C[C@@H]1C[C@]1(NC(=O)[C@@H]1C[C@@H](Oc2nc(-c3ccc(OC)cc3)nc3c2oc2ccccc23)CN1C(=O)[C@@H](Nc1nc(C(=O)OC)cs1)C(C)(C)C)C(=O)NS(=O)(=O)C1CC1 [Compound 176]	active
COC(=O)c1ccc(-c2cc(O[C@@H]3C[C@H]4C(=O)N[C@]5(C(=O)NS(=O)(=O)C6CC6)C[C@H]5/C=C\CCCCC[C@H](NC(=O)OC5CCCC5)C(=O)N4C3)n3nc4ccccc4c3n2)cc1 [Compound 243]	active
Cc1nc(N[C@H]2CCCCC/C=C\[C@@H]3C[C@@]3(C(=O)NS(=O)(=O)C3CC3)NC(=O)[C@@H]3C[C@@H](Oc4nc(-c5ccc(OC(C)C)cc5)nc5c4oc4ccccc45)CN3C2=O)sc1C [Compound 224, (2R,6S,13aS,14aR,16aS,Z)—N-(cyclopropylsulfonyl)-6-(4,5-dimethylthiazol-2-ylamino)-2-(2-(4-isopropoxyphenyl)benzofuro[3,2-d]pyrimidin-4-yloxy)-5,16-dioxo-1,2,3,5,6,7,8,9,10,11,13a,14,14a,15,16,16a-hexadecahydrocyclopropa[e]pyrrolo[1,2-a][1,4]diazacyclopentadecine-14a-carboxamide]	active
C=C[C@@H]1C[C@]1(NC(=O)[C@@H]1C[C@@H](Oc2nc(-c3ccc(C(F)(F)F)cc3)nc3c2oc2ccccc23)CN1C(=O)[C@@H](Nc1ccc(C(F)(F)F)cc1)C(C)(C)C)C(=O)NS(=O)(=O)C1CC1 [Compound 116]	active

SMILES	inhibiting NS3/4A activity
C=C[C@@H]1C[C@]1(NC(=O)[C@@H]1C[C@@H](Oc2nc(-c3ccc(C(F)(F)F)cc3)nc3c2oc2ccccc23)CN1C(=O)[C@@H](Nc1cncnc1)C(C)(C)C)C(=O)NS(=O)(=O)C1CC1 [Compound 49]	active
COc1ccc2nn3c(O[C@@H]4C[C@H]5C(=O)N[C@]6(C(=O)NS(=O)(=O)C7CC7)C[C@H]6/C=C\CCCCC[C@H](NC(=O)OC6CCCC6)C(=O)N5C4)cc(-c4ccccc4)nc3c2c1 [Compound 254]	active
C=C[C@@H]1C[C@]1(NC(=O)[C@@H]1C[C@@H](Oc2nc(-c3ccc(C(F)(F)F)cc3)nc3c2oc2ccccc23)CN1C(=O)[C@@H](Nc1nc(C)c(C)s1)C(C)(C)C)C(=O)NS(=O)(=O)C1CC1 [Compound 29]	active
CC(C)Oc1ccc(-c2nc(O[C@@H]3C[C@H]4C(=O)N[C@]5(C(=O)NS(=O)(=O)C6CC6)C[C@H]5/C=C\CCCCC[C@H](Nc5nccc(Cl)n5)C(=O)N4C3)c3oc4ccccc4c3n2)cc1 [Compound 225]	active
CC(C)(C)OC(=O)N[C@H]1CCCCC/C=C\[C@@H]2C[C@@]2(C(=O)NS(=O)(=O)C2CC2)NC(=O)[C@@H]2C[C@@H](Oc3cc(-c4cnccn4)nc4c5ccccc5nn34)CN2C1=O [Compound 293]	active
C=C[C@@H]1C[C@]1(NC(=O)[C@@H]1C[C@@H](Oc2nc(-c3ccc(OC(C)C)cc3)nc3c2oc2ccc(F)cc23)CN1C(=O)[C@@H](Nc1nc(C(=O)OC)cs1)C(C)(C)C)C(=O)NS(=O)(=O)C1CC1 [Compound 149]	active
C=C[C@@H]1C[C@]1(NC(=O)[C@@H]1C[C@@H](Oc2nc(-c3ccc(OC(C)C)cc3)nc3c2oc2ccccc23)CN1C(=O)[C@@H](Nc1ccc(C(=O)NC)cc1)C(C)(C)C)C(=O)NS(=O)(=O)C1CC1 [Compound 168]	active
C=C[C@@H]1C[C@]1(NC(=O)[C@@H]1C[C@@H](Oc2nc(-c3ccc(C(F)(F)F)cc3)nc3c2oc2ccccc23)CN1C(=O)[C@@H](Nc1nc(C(=O)OCC)cs1)C(C)(C)C)C(=O)NS(=O)(=O)C1CC1 [Compound 33]	active
C=C[C@@H]1C[C@]1(NC(=O)[C@@H]1C[C@@H](Oc2nc(-c3ccc(OC(F)(F)F)cc3)nc3c2oc2ccccc23)CN1C(=O)[C@@H](Nc1nc(C(=O)OC)cs1)C(C)(C)C)C(=O)NS(=O)(=O)C1CC1 [Compound 178]	active
C=C[C@@H]1C[C@]1(NC(=O)[C@@H]1C[C@@H](Oc2nc(-c3ccc(OC(C)C)cc3)nc3c2sc2ccccc23)CN1C(=O)[C@@H](Nc1ccc(F)cc1)C(C)(C)C)C(=O)NS(=O)(=O)C1CC1 [Compound 123]	active
COc1cccc(-c2cc(O[C@@H]3C[C@H]4C(=O)N[C@]5(C(=O)NS(=O)(=O)C6CC6)C[C@H]5/C=C\CCCCC[C@H](NC(=O)OC(C)(C)C)C(=O)N4C3)n3nc4ccccc4c3n2)c1 [Compound 292]	active
C=C[C@@H]1C[C@]1(NC(=O)[C@@H]1C[C@@H](Oc2nc(-c3ccc(OC(C)C)cc3)nc3c2oc2ccccc23)CN1C(=O)[C@@H](Nc1nc(C)c(C(=O)OC)s1)C(C)(C)C)C(=O)NS(=O)(=O)C1CC1 [Compound 102]	active
CC(C)Oc1ccc(-c2nc(O[C@@H]3C[C@H]4C(=O)N[C@]5(C(=O)NS(=O)(=O)C6CC6)C[C@H]5/C=C\CCCCC[C@H](Nc5cccc(F)c5)C(=O)N4C3)c3oc4ccccc4c3n2)cc1 [Compound 210]	active
CC(C)Oc1ccc(-c2nc(O[C@@H]3C[C@H]4C(=O)N[C@]5(C(=O)NS(=O)(=O)C6CC6)C[C@H]5/C=C\CCCCC[C@H](Nc5ccc(Cl)cc5)C(=O)N4C3)c3oc4ccccc4c3n2)cc1 [Compound 217]	active
C=C[C@@H]1C[C@]1(NC(=O)[C@@H]1C[C@@H](Oc2nc(-c3ccc(OC(C)C)cc3)nc3c2sc2ccccc23)CN1C(=O)[C@@H](Nc1nc(C(=O)OC)cs1)C1CCCCC1)C(=O)NS(=O)(=O)C1CC1 [Compound 163]	active
CC(C)Oc1ccc(-c2nc(O[C@@H]3C[C@H]4C(=O)N[C@]5(C(=O)NS(=O)(=O)C6CC6)C[C@H]5/C=C\CCCCC[C@H](Nc5ccc(F)cc5)C(=O)N4C3)c3oc4ccc(F)cc4c3n2)cc1 [Compound 222]	active
C=CCCCCC[C@H](Nc1cccc(F)c1)C(=O)N1C[C@H](Oc2nc(-c3ccc(C(F)(F)F)cc3)nc3c2oc2ccccc23)C[C@H]1C(=O)N[C@]1(C(=O)NS(=O)(=O)C2CC2)C[C@H]1C=C [Compound 76]	active
CC(C)Oc1ccc(-c2nc(O[C@@H]3C[C@H]4C(=O)N[C@]5(C(=O)NS(=O)(=O)C6CC6)C[C@H]5/C=C\CCCCC[C@H](Nc5ccccc5)C(=O)N4C3)c3oc4ccccc4c3n2)cc1 [Compound 213]	active
